In US20090304719A1:
Results are given in words; binding and its absence hold for the method and conditions named. Some binding calls cover weakened binding; strength is not graded here.

Protein sequences, listed by entry. Tags and fused reporters are not part of them. Lines headed by an entry give the natural chain unless they say otherwise; changes in a name come on top. Chains listed by the source or under a name are the forms on record and can include a tag or linker.
VEGF (P15692, form named): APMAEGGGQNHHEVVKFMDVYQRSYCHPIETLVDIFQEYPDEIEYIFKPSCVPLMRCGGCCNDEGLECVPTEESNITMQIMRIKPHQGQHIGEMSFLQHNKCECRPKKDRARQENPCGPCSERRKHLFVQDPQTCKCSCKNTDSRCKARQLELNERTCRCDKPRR

Biological target: VEGF (UniProt P15692)
Test: FACS, construct displayed on E. coli (CPX), labeled VEGF; MMP-2 treated against untreated

B1: GS control (designed binder, not shown: large carriers; small tags and cut ends)
chain: GQSGQGGSGGSGGSGGSGGSPLGLAGGGSGNFGYGKWEWDYGKWLEKVGGG
binding: binds
